# These are yes or no findings as the source states them, for the method shown. Binding seen in cells or lysates may run through a third protein. Some binding calls cover weakened binding; strength is not graded here.
# Sequences of proteins named here, by UniProt entry; tags and fusion partners are left off.
# UniProt P13010: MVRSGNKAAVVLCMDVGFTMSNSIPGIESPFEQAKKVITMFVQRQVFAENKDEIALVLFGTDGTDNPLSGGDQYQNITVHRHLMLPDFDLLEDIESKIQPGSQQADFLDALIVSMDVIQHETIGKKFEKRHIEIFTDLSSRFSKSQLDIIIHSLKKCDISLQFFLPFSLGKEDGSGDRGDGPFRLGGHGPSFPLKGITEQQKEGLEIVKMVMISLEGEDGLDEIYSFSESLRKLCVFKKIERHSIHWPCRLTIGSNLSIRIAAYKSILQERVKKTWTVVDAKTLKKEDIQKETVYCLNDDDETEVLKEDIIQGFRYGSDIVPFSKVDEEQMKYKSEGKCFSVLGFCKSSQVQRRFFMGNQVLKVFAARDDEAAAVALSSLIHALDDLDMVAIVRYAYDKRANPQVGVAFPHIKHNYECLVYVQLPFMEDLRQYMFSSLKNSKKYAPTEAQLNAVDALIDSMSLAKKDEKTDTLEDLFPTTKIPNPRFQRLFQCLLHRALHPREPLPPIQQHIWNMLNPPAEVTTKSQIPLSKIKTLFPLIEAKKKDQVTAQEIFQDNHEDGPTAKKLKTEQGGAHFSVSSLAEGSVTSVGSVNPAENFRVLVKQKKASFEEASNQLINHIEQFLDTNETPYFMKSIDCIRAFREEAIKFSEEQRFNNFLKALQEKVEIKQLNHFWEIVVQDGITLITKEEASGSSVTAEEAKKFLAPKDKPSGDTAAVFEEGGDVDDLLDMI
# UniProt P09874: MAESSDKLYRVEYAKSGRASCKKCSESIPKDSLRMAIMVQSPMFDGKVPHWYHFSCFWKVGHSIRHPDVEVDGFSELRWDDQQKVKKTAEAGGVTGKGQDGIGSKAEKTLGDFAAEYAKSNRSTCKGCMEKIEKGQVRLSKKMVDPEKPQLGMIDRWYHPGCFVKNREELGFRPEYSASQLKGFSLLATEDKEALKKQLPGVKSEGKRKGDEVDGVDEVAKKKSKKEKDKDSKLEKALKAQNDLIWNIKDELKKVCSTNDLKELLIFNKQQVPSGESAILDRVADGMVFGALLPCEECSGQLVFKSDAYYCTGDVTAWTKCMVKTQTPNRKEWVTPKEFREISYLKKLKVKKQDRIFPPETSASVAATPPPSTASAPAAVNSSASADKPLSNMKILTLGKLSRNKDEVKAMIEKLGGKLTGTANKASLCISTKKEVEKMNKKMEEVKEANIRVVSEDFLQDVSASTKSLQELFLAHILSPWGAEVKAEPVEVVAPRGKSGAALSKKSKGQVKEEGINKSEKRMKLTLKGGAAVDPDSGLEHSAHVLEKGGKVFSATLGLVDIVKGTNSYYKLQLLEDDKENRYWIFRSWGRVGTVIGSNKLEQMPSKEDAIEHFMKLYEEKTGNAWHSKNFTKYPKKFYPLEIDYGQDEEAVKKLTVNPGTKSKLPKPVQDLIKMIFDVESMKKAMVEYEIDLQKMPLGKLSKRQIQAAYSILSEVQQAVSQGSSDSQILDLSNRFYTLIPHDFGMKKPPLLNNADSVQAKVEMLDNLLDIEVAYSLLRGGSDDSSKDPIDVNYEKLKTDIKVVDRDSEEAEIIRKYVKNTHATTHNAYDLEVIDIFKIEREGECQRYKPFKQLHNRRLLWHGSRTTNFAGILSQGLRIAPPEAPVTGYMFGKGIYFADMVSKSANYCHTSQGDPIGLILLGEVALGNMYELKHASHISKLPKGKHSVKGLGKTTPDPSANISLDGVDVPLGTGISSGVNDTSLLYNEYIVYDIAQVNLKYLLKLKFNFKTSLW
# Assays:
# [1] = biological target: full-length Ku80, 3×FLAG-tagged (UniProt P13010); test: co-IP; HEK293T cells transfected with 3×FLAG-tagged Ku80 constructs for 48 h; FLAG Co-IP, IB for PARP1
# [2] = biological target: PARP1 (human (endogenous in SKOV3)) (UniProt P09874); test: co-IP; endogenous proteins; SKOV3 (for Ku80-XLF-APLF also OVCAR3) lysed in IP lysis buffer, IgG or 1-4 μg IP antibody overnight at 4 °C, protein A/G magnetic beads 2 h at 4 °C, washed with PBST, IB; cells untreated or treated with DMSO, CDK12i 50 nM, Olaparib 10 μM or both for 2 days; also 0.01% MMS 1 h or 80 μM CCCP 2 h
# [3] = biological target: recombinant 6×His-PARP1 protein (UniProt P09874); test: pull-down; recombinant 6×His-PARP1 (2 μg per sample) incubated overnight with lysates of HEK293T cells transfected with FLAG-Ku80 constructs; His tag-conjugated beads 2 h at 4 °C, washed three times; only the target purified
# [4] = biological target: Ku80 (human (endogenous in SKOV3)) (UniProt P13010); test: co-IP; endogenous proteins; SKOV3 (for Ku80-XLF-APLF also OVCAR3) lysed in IP lysis buffer, IgG or 1-4 μg IP antibody overnight at 4 °C, protein A/G magnetic beads 2 h at 4 °C, washed with PBST, IB; cells untreated or treated with DMSO, CDK12i 50 nM, Olaparib 10 μM or both for 2 days; also 0.01% MMS 1 h or 80 μM CCCP 2 h
substance,measurement,setting,value
PARP1 (in HEK293T cells) (from UniProt P09874 1-1014),binding,[1],binds
Ku80 (from UniProt P13010 1-732),binding,[2],binds
"full-length Ku80, 3×FLAG-tagged (from UniProt P13010 1-732)",binding,[3],binds
PARP1 (from UniProt P09874 1-1014),binding,[4],binds

# Reference: paper PMC11380446
